In publication PMC8888506:
Results are given in words; binding and its absence hold for the method and conditions named. Binding seen in cells or lysates may run through a third protein. Some entries that bind do so weakly or less than the wild type. Where a sequence is shown, tags or fusion partners need not be part of it.

Molecular target: T1, Cdc55 (regulatory subunit of the PP2A-Cdc55 phosphatase), Pk-tagged (S. cerevisiae) (UniProt Q00362)
T1 sequence: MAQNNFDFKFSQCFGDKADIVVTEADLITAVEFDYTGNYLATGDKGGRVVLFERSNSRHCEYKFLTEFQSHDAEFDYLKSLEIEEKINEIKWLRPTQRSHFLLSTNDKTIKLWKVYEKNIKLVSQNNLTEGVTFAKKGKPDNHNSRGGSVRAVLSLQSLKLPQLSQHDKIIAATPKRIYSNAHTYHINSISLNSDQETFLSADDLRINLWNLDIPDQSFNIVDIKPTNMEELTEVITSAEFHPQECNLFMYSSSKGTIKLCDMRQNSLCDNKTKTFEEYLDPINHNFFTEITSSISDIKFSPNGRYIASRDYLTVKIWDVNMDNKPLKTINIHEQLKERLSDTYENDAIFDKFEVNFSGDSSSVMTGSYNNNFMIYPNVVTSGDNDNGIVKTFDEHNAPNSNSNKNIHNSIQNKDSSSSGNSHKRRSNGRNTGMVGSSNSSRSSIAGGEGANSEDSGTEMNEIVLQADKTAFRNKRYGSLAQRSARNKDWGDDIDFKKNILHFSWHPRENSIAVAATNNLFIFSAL
Test: co-IP; anti-Pk (SV5-Pk1) immunoprecipitation of Pk-Cdc55 on protein A Dynabeads from yeast extracts prepared at metaphase, anaphase and cytokinesis (Cdc20 depletion and re-addition); washes at incremental KOAc; Chs2 detected by western blot; strain Y1318 without the Pk tag as negative control

B1: Chs2 (chitin synthase II) (protein, UniProt P14180 1-963)
chain: MTRNPFMVEPSNGSPNRRGASNLSKFYANANSNSRWANPSEESLEDSYDQSNVFQGLPASPSRAALRYSPDRRHRTQFYRDSAHNSPVAPNRYAANLQESPKRAGEAVIHLSEGSNLYPRDNADLPVDPYHLSPQQQPSNNLFGSGRLYSQSSKYTMSTTSTTAPSLAEADDEKEKYLTSTTSYDDQSTIFSADTFNETKFELNHPTRQQYVRRANSESKRRMVSDLPPPSKKKALLKLDNPIPKGLLDTLPRRNSPEFTEMRYTACTVEPDDFLREGYTLRFAEMNRECQIAICITMYNEDKYSLARTIHSIMKNVAHLCKREKSHVWGPNGWKKVSVILISDGRAKVNQGSLDYLAALGVYQEDMAKASVNGDPVKAHIFELTTQVSINADLDYVSKDIVPVQLVFCLKEENKKKINSHRWLFNAFCPVLQPTVVTLVDVGTRLNNTAIYRLWKVFDMDSNVAGAAGQIKTMKGKWGLKLFNPLVASQNFEYKISNILDKPLESVFGYISVLPGALSAYRYRALKNHEDGTGPLRSYFLGETQEGRDHDVFTANMYLAEDRILCWELVAKRDAKWVLKYVKEATGETDVPEDVSEFISQRRRWLNGAMFAAIYAQLHFYQIWKTKHSVVRKFFLHVEFLYQFIQMLFSWFSIANFVLTFYYLAGSMNLVIKHGEALFIFFKYLIFCDLASLFIISMGNRPQGAKHLFITSMVILSICATYSLICGFVFAFKSLASGTESHKIFVDIVISLLSTYGLYFFSSLMYLDPWHMFTSSIQYFLTLPAFTCTLQIFAFCNTHDVSWGTKGSTQESKQLSKAIVVQGPDGKQIVETDWPQEVDKKFLEIKSRLKEPEFEESSGNEKQSKNDYYRDIRTRIVMIWMLSNLILIMSIIQVFTPQDTDNGYLIFILWSVAALAAFRVVGSMAFLFMKYLRIIVSYRNKVEGSGSWEVSKLDLPNVFHKKG
- binding: binds
